Values quoted from earlier work in patent US4603132A, “Phenothiazine compounds with anti-bronchospastic activity and pharmaceutical compositions containing them” (priority 1984, dated 1986).

System: bronchial asthma
Settings: literature, in words; cited from earlier work

CN1CCC[C@@H]1CCO[C@](C)(c1ccccc1)c1ccc(Cl)cc1 [clemastine]
effect in bronchial asthma / bronchial hyperreactivity: singularly inefficacious in the bronchial asthma
